The target of assay [1] is human CD3 epsilon (recombinant, plate-coated) (human) (UniProt P07766). The experiment in a line: sandwich ELISA, plate coated with CD3ε, luminescence (RLU). (In an ELISA, binding on a coated surface is turned into a signal by an enzyme label.)
Assay [2] addresses T1, Human ULBP2 (recombinant) (human) (UniProt Q9BZM5).
T1 sequence: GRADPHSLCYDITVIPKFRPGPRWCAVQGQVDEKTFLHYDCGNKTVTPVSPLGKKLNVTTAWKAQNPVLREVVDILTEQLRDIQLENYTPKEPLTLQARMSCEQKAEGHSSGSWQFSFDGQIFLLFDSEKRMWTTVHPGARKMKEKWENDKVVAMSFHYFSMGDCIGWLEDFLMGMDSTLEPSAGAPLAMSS
The experiment in a line: sandwich ELISA, plate coated with recombinant ULBP2, luminescence (RLU).

Chains of the proteins cited; added tags and fusions are not shown. Lines headed by an entry give the natural chain unless they say otherwise; changes in a name come on top.
UniProt P07766: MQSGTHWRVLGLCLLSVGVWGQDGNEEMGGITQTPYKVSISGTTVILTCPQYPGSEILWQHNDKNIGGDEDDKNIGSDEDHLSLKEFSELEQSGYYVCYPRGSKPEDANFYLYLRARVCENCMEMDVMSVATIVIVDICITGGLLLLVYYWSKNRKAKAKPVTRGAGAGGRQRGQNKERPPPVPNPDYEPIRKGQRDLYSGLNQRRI

No constants are given. Whether binding was seen depends on the method and setting.

B1: iso-control EIP0120 (antibody, human IgG1, kappa, V domains shown)
VH: QVQLVQSGAEVKKPGASVKVSCQASGYRFSNFVIHWVRQAPGQRFEWMGWINPYNGNKEFSAKFQDRVTFTADTSANTAYMELRSLRSADTAVYYCARVGPYSWDDSPQDNYYMDVWGKGTTVIVSS
VL: EIVLTQSPGTLSLSPGERATFSCRSSHSIRSRRVAWYQHKPGQAPRLVIHGVSNRASGISDRFSGSGSGTDFTLTITRVEPEDFALYYCQVYGASSYTFGQGTKLERKR
Turning to B1, the figures for the binding result in assay [1] and in assay [2] were “no binding (tested: 10000 ng/mL)” and “no binding (tested: 10 µg/mL)”, respectively.

The values are drawn from patent US20250197496A1.
